Test results as given in article PMC5343656, “The human mitochondrial transcription factor A is a versatile G-quadruplex binding protein”.
A weaker result is weaker than the reference pair of the same experiment. Where a protein sequence is shown, tags need not be part of it. For some assays here: The exact form of at least one protein or probe is not confirmed.

How the values were obtained:
[1] = target: T1, TFAM (mature) (human) (UniProt Q00059); assay: competition with a labelled probe; conditions: vs 32P-G4-LSP22H, singly-bound not displaced at 375-fold; EMSA: 25 mM Tris-HCl pH 7.0, 90 mM NaCl, 1 mM DTT, 3% glycerol, 0.01% Tween20, 30 min, room temperature; G4s mostly prefolded in 10 mM cacodylate pH 6.5, 100 mM KCl; recombinant protein; residues 43-246; protein details: C-terminal 6xHis; label: 5' 32P (EMSA)
T1 sequence (looked up): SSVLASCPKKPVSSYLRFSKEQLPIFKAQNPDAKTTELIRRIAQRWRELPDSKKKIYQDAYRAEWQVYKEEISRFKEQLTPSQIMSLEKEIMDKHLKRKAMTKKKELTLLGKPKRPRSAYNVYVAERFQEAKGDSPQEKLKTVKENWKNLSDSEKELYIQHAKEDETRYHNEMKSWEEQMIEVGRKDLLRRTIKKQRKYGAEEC

[2] = target: T2, TFAM HMG2-Cter (human) (UniProt Q00059); assay: EMSA; conditions: weak band, smearing; EMSA: 25 mM Tris-HCl pH 7.0, 90 mM NaCl, 1 mM DTT, 3% glycerol, 0.01% Tween20, 30 min, room temperature; G4s mostly prefolded in 10 mM cacodylate pH 6.5, 100 mM KCl; recombinant protein; residues 149-246; label: 5' 32P or SybrGold; folded or branched DNA
T2 sequence (looked up): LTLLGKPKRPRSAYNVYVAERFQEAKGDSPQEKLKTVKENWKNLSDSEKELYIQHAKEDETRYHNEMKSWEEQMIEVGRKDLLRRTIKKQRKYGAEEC

## GTTAGTTGGGGGGTGACTGTTA (double strand) [dsLSP22]
[1]
  binding result: binds more weakly

## GTTAGTTGGGGGGTGACTGTTA [G4-LSP22H]
[2]
  binding result: binds more weakly
